Measured values reported in PubChem BioAssay AID504444 (National Center for Advancing Translational Sciences (NCATS), 2011).
The campaign covered roughly 360,000 compounds. About 7,500 (2.1%) were called active. The inconclusive results got no clear call from the source; some entries with a clear call stand among them for comparison. Calls come from the whole dose curve; as a rule, active = well fitted inhibition curve with a large enough effect; inconclusive = small, poorly fitted or top-dose-only effect, or effect the other way; inactive = flat fitted curve, though single readings scatter. Where the call is inconclusive, the potency comes from a doubtful curve fit.
% is set by controls: 0 for no effect and ±100 for the full control effect; potency is the fitted concentration of half-maximal effect.

Assay: Nrf2 qHTS screen for inhibitors; note: nearly all actives have a fitted effect of over 60% in size
Settings: A549 ARE-Fluc reporter, luciferase luminescence, 18-24 h; activity change, negative = inhibition: at 46 µM (top of the series)
Summary of the method: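 Quantitative HTS in A549 cells stably bearing an antioxidant response element-firefly luciferase construct. Inhibition of Nrf2-driven transcription was scored by luminescence after 18-24 h of compound exposure at 37 °C.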
With COC(=O)c1ccc(COC(=O)CNC(=O)c2ccc(-c3ccccc3)cc2)cc1 the Potency was inconclusive: 20.6 µM [activator, partial curve].
With CCn1c(C)nc2cc(S(=O)(=O)C(F)(F)C(F)C(F)(F)F)ccc21 (centres undefined) the Potency was inconclusive: 23.1 µM [falling, partial curve].
In the case of Cc1cc(=O)oc2cc(OCC(=O)N3CCCC3)c(Cl)cc12, the Potency was inconclusive: 5.17 µM [falling, full curve].
For COc1ccc(Cl)cc1NC(=O)Cn1nc(C(F)(F)F)c2c1CCCC2, the Potency was inconclusive: 23.1 µM [falling, single point].
For Cc1cc(-c2ccc(C)c(S(=O)(=O)N3CCN(c4ccc(F)cc4)CC3)c2)on1, the Potency was active: 8.2 µM.
With O=C(/C=C/c1cccs1)Nc1cccnc1 the Potency was inconclusive: 16.4 µM [activator, partial curve, poor fit].
With COc1ccccc1OCCNC(=O)CCC(=O)N1CCOCC1 the “activity change, negative = inhibition” value was inactive: 7.95%.
With CC(C)c1ccc(NC(=O)C(c2ccccc2)N2CCC3(CC2)OCCO3)cc1 (centres undefined) the Potency was active: 14.6 µM.
In the case of O=C(Cn1nc(-c2ccco2)ccc1=O)Nc1cc(Cl)ccc1Cl, the Potency was inconclusive: 32.6 µM [falling, partial curve, poor fit].
With CCn1c(O)c(C#N)c(C)cc1=O the Potency was inconclusive: 3.66 µM [falling, partial curve, poor fit].
In the case of Cc1cccc(C(=O)NC(NCCc2ccccc2)C(Cl)(Cl)Cl)c1 (centres undefined), the Potency was inconclusive: 0.651 µM [activator, full curve, poor fit].
With CCOC(=O)C1=C(C)OC(N)=C(C#N)C1c1cc(SCC)oc1C (centres undefined) the Potency was inconclusive: 11.6 µM [falling, partial curve, poor fit].
In the case of O=C(NCCOc1ccc(Cl)cc1)c1ccc2ccccc2n1, the Potency was inconclusive: 20.6 µM [falling, partial curve, poor fit].
For COc1ccc(NC(=O)n2ncc3cc(Cl)ccc32)cc1OC, the Potency was inconclusive: 25.9 µM [activator, single point].
With Cc1onc(-c2ccccc2)c1C(=O)O/N=C(\N)c1ccc([N+](=O)[O-])o1 the Potency was inconclusive: 29.1 µM [falling, single point].
In the case of COc1c2ccccc2c(OC)c2ccccc12, the “activity change, negative = inhibition” value was inactive: 17%.
In the case of O=C(NC(NC(=O)c1ccccc1)c1cccc([N+](=O)[O-])c1)c1ccccc1, the “activity change, negative = inhibition” value was inactive: 10.7%.
In the case of COc1ccc(NC(=O)c2cc(-c3cccnc3)nc3ccc(C)cc23)cc1OC, the Potency was inconclusive: 8.2 µM [falling, partial curve].
In the case of CCC(C)c1ccccc1OCC(=O)Nc1ccc(S(=O)(=O)Nc2cc(C)on2)cc1 (centres undefined), the Potency was inconclusive: 32.6 µM [falling, partial curve, poor fit].
With COc1ccc(CC(=O)Nc2cccc(S(=O)(=O)N3CCOCC3)c2)cc1OC the “activity change, negative = inhibition” value was inactive: -25.8%.
For Cc1cc(C)cc(CC(Cc2nc3ccccc3[nH]2)c2nc3ccccc3[nH]2)c1 (centres undefined), the Potency was inconclusive: 16.4 µM [falling, single point].
For Cc1cccc(OCC(=O)NCCNC(=O)c2cccnc2)c1, the Potency was inconclusive: 7.31 µM [falling, partial curve, poor fit].
For CCOC(=O)c1nnc(-c2ccccc2)nc1NCc1ccccc1, the Potency was inconclusive: 32.6 µM [falling, single point].
In the case of O=C(c1ccc(S(=O)(=O)Cc2ccccc2Cl)c([N+](=O)[O-])c1)N1CCOCC1, the Potency was inconclusive: 25.9 µM [falling, single point].
With c1ccc(-c2nc(NCc3cccnc3)c3ccccc3n2)cc1 the Potency was inconclusive: 16.4 µM [falling, single point].
For Cc1nn(-c2nc3ccccc3s2)c(C)c1Oc1ccccc1O, the Potency was inconclusive: 23.1 µM [activator, single point].
For O=C(CN(C1CCCCC1)S(=O)(=O)c1ccc(F)cc1)NCC1CCCO1 (centres undefined), the “activity change, negative = inhibition” value was inactive: -2.17%.
With Cc1cc2c(s1)c1cnn(Cc3c(Cl)ccc(C)c3F)c(=O)c1n2C the “activity change, negative = inhibition” value was inactive: 2.61%.
In the case of O=C(Nc1ncc(Cc2ccccc2Cl)s1)c1ccc(-c2cccc([N+](=O)[O-])c2)o1, the Potency was active: 16.4 µM.
For Cc1cc(Cl)ccc1OC(C)C(=O)Nc1ccc(C(=O)Nc2ccccc2C(=O)O)cc1 (centres undefined), the Potency was inconclusive: 20.6 µM [falling, single point].
In the case of CCCn1c2ccccc2c2cnn(CC(=O)NCCCN(CC)c3ccccc3)c(=O)c21, the Potency was inconclusive: 29.1 µM [falling, single point].
With COc1ccc(/C=N/NC(=O)c2ccccc2O)cc1CSc1ccccn1 the Potency was inconclusive: 29.1 µM [falling, single point].
For C[C@H]1CCC[C@]2(C)C[C@H]3OC(=O)C(CN4CCCCCC4)[C@H]3C=C12 (some centres undefined), the Potency was inconclusive: 11.6 µM [falling, partial curve, poor fit].
For c1ccn2cc(-c3ccc4c(c3)OCO4)cc2c1, the Potency was inconclusive: 18.4 µM [activator, partial curve].
For CC(=O)Nc1ccc(NC(=O)C2c3ccccc3Oc3ccccc32)cc1, the Potency was inconclusive: 2.59 µM [activator, single point].
With Cc1ccnc(Nc2nc3ccccc3o2)n1 the Potency was inconclusive: 16.4 µM [falling, single point].
For O=C(COc1ccc(Br)cc1)N1CCN(S(=O)(=O)/C=C/c2ccccc2)CC1, the Potency was inconclusive: 29.1 µM [falling, single point].
In the case of CCc1ccc(NC(=O)c2ccc(Cn3nc(N4CCN(c5ccccc5)CC4)ccc3=O)o2)cc1, the Potency was active: 5.17 µM.
With O=C(c1ccc2c(c1)N(Cc1c(F)cccc1Cl)C(=O)c1ccccc1S2)N1CCCC1 the Potency was active: 10.3 µM.
With CSc1nsc2nc(=O)c(/C=C3\C(C)=Nc4ccccc43)c(N)n12 the Potency was inconclusive: 25.9 µM [activator, partial curve].
With COc1ccccc1OCCCn1c(=O)sc2ccccc21 the “activity change, negative = inhibition” value was inactive: 0.522%.
With NC(=O)C1CCN(c2ncnc3c(-c4ccccc4)nsc23)CC1 the Potency was inconclusive: 14.6 µM [activator, partial curve].
In the case of CCCc1nc(N2CCCC2)c(C#N)c2c1CCCC2, the “activity change, negative = inhibition” value was inactive: 10.3%.
For COc1ccc(-c2cc(C(=O)N(C)CC(=O)Nc3ccccc3C(F)(F)F)c3ccccc3n2)cc1OC, the Potency was inconclusive: 13 µM [falling, partial curve, poor fit].
